Results: PubChem BioAssay AID2685 (National Center for Advancing Translational Sciences (NCATS), 2010)
The list shows a part of the results. The main result of the screen is listed elsewhere. These columns were measured beside it and carry no call. The list favours compounds with an active or inconclusive main result. The note in brackets gives the kind of curve behind each potency; many fits are weak.

Experiment: qHTS Assay for Lipid Storage Modulators in Drosophila S3 Cells;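 on cell number change: cells counted by Cell Tracker Red CMTPX staining in the red channel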
Details: BODIPY lipid droplet fluorescence, 18-24 h; for cell number change: measured here: cell count max response, cells fed with added oleic acid
Method in brief: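 Laser-scanning cytometry quantifies lipid droplet accumulation (500–530 nm total intensity; droplet/cell object ratio) in oleic acid-fed (400 uM added) Drosophila S3 cells treated with a concentration series. 20 uM Triacsin C defined 100% inhibition.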

[1] = measured here: cell number channel AC50, cells fed with added oleic acid
[2] = measured here: lipid fluorescence (Fed channel) AC50, cells fed with added oleic acid

| SMILES | cell number change [%] | AC50 [1] | AC50 [2] |
| --- | --- | --- | --- |
| COc1ccccc1NC(=O)CSc1ccc2nnc(-c3ccccn3)n2n1 | 86.9 | 1.64 µM [rising, full curve] | 1.64 µM [rising, partial curve] |
| Cn1c(N=Nc2ccc(N3CCOCC3)cc2)[n+](C)c2ccccc21 | -12.1 | – | 18.4 µM [falling, single point] |
| CCN(CC)P(=O)(Nc1ccc(Br)cc1)c1c(C)nn(CCC#N)c1NC(=O)c1ccc(Cl)cc1 (configuration not stated) | -4.76 | – | – |
| CNc1c(NS(=O)(=O)c2ccc(F)cc2)c(=O)oc2ccccc12 | 2.63 | – | 35.5 µM [falling, single point] |
| O=C(COC(=O)c1ccco1)Nc1ccccc1[N+](=O)[O-] | 55.9 | 20.6 µM [rising, single point] | 6.51 µM [falling, single point] |
| Cc1ccccc1-c1cc(C(=O)Nc2sc(C(=O)OC(C)C)c(C)c2C#N)c2ccccc2n1 | -21.7 | 0.13 µM [falling, full curve, poor fit] | – |
| CCc1ccc(N2C(=O)c3cc(N4CCOCC4)c([N+](=O)[O-])cc3C2=O)cc1 | -28.3 | – | 23.1 µM [rising, single point] |
| C=CCn1c(SCC(C)=O)nnc1-c1cc(-c2ccccc2)sc1N | -32.3 | 16.4 µM [falling, partial curve] | 14.6 µM [falling, single point] |
| O=C(Nn1c(-c2ccccc2)nc2ccccc2c1=O)c1ccco1 | -13.8 | – | 0.092 µM [rising, full curve, poor fit] |
| O=C(Nc1nnc(COc2ccccc2)s1)c1ccco1 | -31 | 16.4 µM [falling, single point] | – |
| CCc1cc(C(=O)N(CCCOC)c2c(N)n(Cc3ccccc3)c(=O)[nH]c2=O)sc1C | 2.08 | – | – |
| COc1ccc(-c2ccc(SCc3cccnc3)nn2)cc1OC | 17.1 | – | 29.1 µM [rising, single point] |
| NC(N)=N/N=C/c1ccc(OCc2ccccc2)cc1 | -36.8 | 7.31 µM [falling, full curve, poor fit] | 6.51 µM [falling, partial curve, poor fit] |
| CC(=O)c1c(C)[nH]c(C(=O)Nc2ccc(C)cn2)c1C | -0.706 | 0.206 µM [rising, full curve, poor fit] | 6.51 µM [rising, partial curve] |
| COCCn1c(C)cc(C(=O)COc2ccc(N(C)S(=O)(=O)c3ccc(C)cc3)cc2)c1C | -17.1 | – | – |
| Cc1cc(C)c(C(=O)N2CCC(N3CCC(C(=O)NC(C)C)CC3)CC2)o1 | -1.62 | – | – |
| CC1=C(C)CC(C(=O)c2ccccc2)C(C(=O)O)C1 (configuration not stated) | 75 | 29.1 µM [rising, single point] | – |
| Cc1cc(O)cc(O)c1C(=O)Cc1cscn1 | -10 | – | 1.46 µM [falling, partial curve] |
| CCOCCCNC(=O)C(NC(=O)CNC(C)=O)c1ccc(C)cc1 (configuration not stated) | 10.3 | – | 23.1 µM [falling, single point] |
| CSc1ccc(CN(C)CC(=O)NCCc2ccccc2)cc1 | 8.87 | – | 18.4 µM [falling, single point] |
| CN(C)c1ccc(-c2noc(-c3ccccc3O)n2)cc1 | 22.1 | – | 0.0058 µM [falling, full curve, poor fit] |

| SMILES | cell number change [%] | AC50 [1] | AC50 [2] |
| --- | --- | --- | --- |
| C=CCSc1nc(C)c(CCCC)c(=O)[nH]1 | 5.25 | – | 0.00517 µM [falling, full curve, poor fit] |
| O=C(CNc1ccccc1Cl)c1ccc(Br)cc1 | 4.99 | – | 29.1 µM [falling, single point] |
| O=C1C2C3C=CC(C3)C2C(=O)N1c1ccccc1OS(=O)(=O)c1ccccc1 (configuration not stated) | 0.57 | – | 6.51 µM [rising, single point] |
| CN(CCc1ccccn1)C1CCCN(S(=O)(=O)c2ccc(F)c(Cl)c2)C1 (configuration not stated) | 3.76 | – | 6.51 µM [falling, single point] |
| CCn1c(O)c(N=N)c2ccccc21 | -2.44 | – | – |
| COC(=O)C1=C(C)N(Cc2ccc(C)cc2)C(=O)/C1=C\c1cc(OC)c(OC)c(OC)c1 | -12.8 | – | 13 µM [falling, single point] |
| Cc1cc(NS(=O)(=O)c2ccc(NC(=O)c3cccnc3)cc2)nc(C)n1 | -7.89 | – | – |
| CCOc1cc(CN2CCN(c3cccc(C(F)(F)F)c3)CC2)ccc1OC | 151 | 20.6 µM [rising, partial curve] | 20.6 µM [rising, partial curve] |
| CC(C)(C)C1CCc2c(C(=O)N/N=C/c3cccs3)csc2C1 (configuration not stated) | -7.31 | – | 29.1 µM [falling, single point] |
| CN(CC1CCCO1)S(=O)(=O)c1ccc(C(=O)Nc2ccc(F)cc2)cc1 (configuration not stated) | – | – | 10.3 µM [falling, partial curve, poor fit] |
| O=C(O)C1(c2ccccc2)CCN(S(=O)(=O)c2ccc(Br)cc2)CC1 | 10.2 | – | – |
| CC(C)C[C@H](NC(=O)c1nc[nH]c1C(=O)N1CCN(c2ccccc2)CC1)C(=O)OCc1ccccc1 | 11.1 | – | 10.3 µM [rising, single point] |
| CCOC(=O)N1CCC(NC(=S)Nc2ccc3nc(N4CCN(CC)CC4)cc(C)c3c2)CC1 | 15 | – | 13 µM [rising, partial curve] |
| CC1=C([N+](=O)[O-])C(c2cccc(Br)c2)C2=C(N1)c1ccccc1C2=O (configuration not stated) | -20.6 | – | 0.103 µM [rising, full curve, poor fit] |
| CNC(=O)NC(=O)C(C)OC(=O)CCCSc1nc2ccccc2s1 (configuration not stated) | -54.5 | 0.184 µM [falling, full curve, poor fit] | 5.8 µM [falling, full curve] |
| COc1ccc(NC(=O)C2CCCN(S(=O)(=O)c3ccc4[nH]c(=O)ccc4c3)C2)cc1OC (configuration not stated) | 14 | – | 6.51 µM [falling, single point] |
| CCSc1nc2sc3c(c2c(=O)n1-c1ccc(C)cc1)CCN(C)C3 | 6.94 | – | 0.58 µM [falling, single point] |
| FC(F)(F)c1cccc(OCc2nnc3n2CCC3)c1 | – | – | 2.91 µM [falling, partial curve, poor fit] |
| CCCSC1=C(C#N)C(c2ccc(O)c(OC)c2)CC(=O)N1 (configuration not stated) | -0.368 | – | – |
| CCOc1ccc(CC(=O)Nc2sc(Cc3ccccc3)cc2C(N)=O)cc1OCC | – | – | 0.731 µM [rising, partial curve, poor fit] |
| NC(=O)c1ccc(Cn2c(C(=O)c3ccc(Cl)cc3)c3ccccc3[n+]2[O-])cc1 | 9.11 | 2.06 µM [falling, single point] | – |

Entries of single compounds, quoted from the list:
`COc1ccc(NC(=O)C2CCCN(S(=O)(=O)c3ccc4[nH]c(=O)ccc4c3)C2)cc1OC` (configuration not stated) reads cell number change [%]: 14; AC50 [2]: 6.51 µM [falling, single point]
`CN(CCc1ccccn1)C1CCCN(S(=O)(=O)c2ccc(F)c(Cl)c2)C1` (configuration not stated) reads cell number change [%]: 3.76; AC50 [2]: 6.51 µM [falling, single point]
`NC(=O)c1ccc(Cn2c(C(=O)c3ccc(Cl)cc3)c3ccccc3[n+]2[O-])cc1` reads cell number change [%]: 9.11; AC50 [1]: 2.06 µM [falling, single point]
`CCSc1nc2sc3c(c2c(=O)n1-c1ccc(C)cc1)CCN(C)C3` reads cell number change [%]: 6.94; AC50 [2]: 0.58 µM [falling, single point]

Continued.

| SMILES | cell number change [%] | AC50 [1] | AC50 [2] |
| --- | --- | --- | --- |
| O=C(NCCn1c(C(F)(F)F)nc2ccccc21)[C@H]1CCCN1c1nc(CN2CCCCC2)cs1 | 20.1 | – | 29.1 µM [rising, single point] |
| O=C(CSc1nnc(CNC(=O)c2c(F)cccc2Cl)o1)NCc1ccccc1 | 21 | – | – |
| Cc1ccc2c(NC(=S)NC(=O)c3ccccc3)cccc2n1 | -0.348 | 2.06 µM [rising, partial curve] | 0.731 µM [rising, full curve, poor fit] |
| COc1ccccc1-c1cc(C(=O)NCc2ccc(Cl)cc2)no1 | 21.3 | 0.731 µM [rising, single point] | – |
| CCNc1nc(NC(C)C)nc(N(C#N)Cc2ccccc2)n1 | -4.69 | – | – |
| COc1cccc(CN2CCc3ccc(NC(=O)CCc4ccc(C)cc4)cc3C2)c1O | 11.2 | – | 1.84 µM [rising, partial curve, poor fit] |
| Cc1ccnc(NS(=O)(=O)c2cnc(Cl)c(Br)c2)c1 | -12.7 | – | 3.66 µM [falling, single point] |
| CCN(CC)c1ccc(CN(C(=O)c2cccs2)C2CCS(=O)(=O)C2)cc1 (configuration not stated) | – | – | 18.4 µM [falling, single point] |
| CC(=O)Nc1ccc(NC(=O)c2nc(-c3ccccc3)oc2C)cc1 | 4.4 | – | – |
| CCn1cc(S(=O)(=O)Nc2cccnc2)cn1 | -16.8 | – | 11.6 µM [falling, single point] |
| CC(=O)Oc1ccc(C(=O)Nc2cc(C)on2)cc1 | -22.2 | – | – |
| Cc1cc(S(=O)(=O)N2CCCC2C(=O)N2CCOCC2)c(C)cc1Cl (configuration not stated) | -1.88 | – | – |
| O=C(/C=C/c1ccco1)NC1=NCCS1 | -0.445 | 2.59 µM [rising, single point] | – |
| CCc1c(-c2ccccc2)nc2nc(C)c(C)nn12 | 49.6 | 14.6 µM [rising, single point] | 0.82 µM [falling, full curve] |
| COc1cccc(Oc2coc3cc(OC(=O)N4CCOCC4)ccc3c2=O)c1 | -26.1 | – | – |
| CSc1ccccc1NC(=O)CN(C)C(=O)c1ccc(-n2cccn2)cc1 | 21.9 | – | 29.1 µM [rising, single point] |
| COc1cccc(N(C(=O)Cc2cccs2)C(C(=O)NC2CCCC2)c2ccncc2)c1 (configuration not stated) | -8.97 | 5.8 µM [rising, single point] | – |
| Cc1ccc2c(c1)C(=O)CC(c1ccc3c(c1)OCCO3)O2 (configuration not stated) | 20.7 | – | 29.1 µM [falling, single point] |
| CCOC(=O)c1oc2cccc(O)c2c1CN1CCOCC1 | -32 | 5.8 µM [falling, full curve, poor fit] | – |
| O=C(C1CC1)N1CCc2cc(Br)cc(S(=O)(=O)NCc3ccc4c(c3)OCO4)c21 | -15 | – | 20.6 µM [rising, single point] |
| Cc1cccc(N2CCN(C(=O)/C=C/c3cccs3)CC2C)c1 (configuration not stated) | -21.5 | 0.00461 µM [falling, full curve, poor fit] | – |
